Data published in patent publication US20240197746A1, “COMBINATION THERAPY WITH A MEK INHIBITOR AND A SRC INHIBITOR FOR THE TREATMENT OF COLORECTAL CANCER” (Yeda Research and Development Co. Ltd., priority 2021, published 2024).
At least one compound was matched to its structure with a doubt left.

What was measured:
Type in all cases: cell-based, human
[1] = test system: CRC tumor from patient 28; assay: BrdU incorporation in EVOC slices (proliferation); settings: four days of treatment, BrdU 18 h before end; responder tumor
[2] = test system: pERK1/2 (T202/Y204); assay: Immunohistochemistry for pERK in CRC tumors treated ex vivo; settings: single agent, p=0.003
[3] = test system: pMEK1/2 (S221); assay: Immunohistochemistry for pMEK in CRC tumors treated ex vivo; settings: both responders and non-responders

Row | SMILES | proliferation as measured by the incorporation of BrdU [1] | non-responder tumors in which pERK score remained high (2 or 3) ([2]; non-responders to MEK/Src inhibition) | responders with low pERK score (0 or 1) after treatment ([2]; responders to MEK/Src inhibition) | effect on pMEK [3]
1 | COc1cc(Nc2c(C#N)cnc3cc(OCCCN4CCN(C)CC4)c(OC)cc23)c(Cl)cc1Cl [Bosutinib] | proliferation is evident | 6 of 8 | 7 out of 8 | 
2 | Cn1cnc2c(F)c(Nc3ccc(Br)cc3Cl)c(C(=O)NOCCO)cc21 [Selumetinib] | proliferation is evident |  |  | increase in pMEK
